Reference: US20030073721A1 (THE REGENTS OF THE UNIVERSITY OF CALIFORNIA, a California …, priority 2001, published 2003)

What was measured:
[1] = solid-phase peptide synthesis
peptide synthesis = conditions: coupling step

Question: For Ac-Phe-Ach-Leu-Ach-Ile N-methylamide, which step yield ([1]; late stage modification step, over 2 steps from acetyl derivative) is on record?
Answer: Its step yield is 42% over 2 steps.

Question: What does the source list for Phe-Ach-Phe-Ach-Ile?
Answer: isolated yield ([1]; whole synthesis, overall, scale of the general procedure 0.1 g resin, 0.91 mmol/g): 45% overall; isolated mass ([1]; whole synthesis, scale 0.06 g resin): 15 mg

Question: With Ac-Phe-Ach-Leu-Ach-Ile tert-butyl ester as the substance, how does the step yield ([1]; late stage modification step) read?
Answer: Its step yield is 85%.

Question: Which step yield ([1]; coupling step) does the source give for “Fmoc-Phe-Ach-Leu-Ach-Ile, tert-butyl ester” here?
Answer: Its step yield is 91%.

Question: For Alloc-Ach-Leu-Ach-Ile, tert-butyl ester, which step yield (peptide synthesis) is on record?
Answer: Its step yield is 42%.

Question: With Ac-Phe-Ach-Leu-Ach-Ile acid as the substance, how does the step yield ([1]; late stage modification step) read?
Answer: The step yield was 97%.

Question: For Ach-Leu-Ach-Ile tert-butyl ester, which step yield ([1]; late stage modification step) is on record?
Answer: The step yield was 77%.
